Assay [1] deals with Akt2 (endogenous, porcine adipocytes) (pig (endogenous in porcine adipocytes)) (UniProt G9BWQ2). The assay is described as follows: co-IP; endogenous proteins; 10 mg total porcine adipocyte lysate with 4 µg antibody overnight, captured on goat anti-rabbit or anti-mouse IgG magnetic beads for 4 h; washed 4 times with lysis buffer; Western blot; Akt2 with Sirt1 over the days of differentiation, the other pairs at day 8 after induction.

Chains of the proteins cited; added tags and fusions are not shown. Lines headed by an entry give the natural chain unless they say otherwise; changes in a name come on top.
UniProt G9BWQ2: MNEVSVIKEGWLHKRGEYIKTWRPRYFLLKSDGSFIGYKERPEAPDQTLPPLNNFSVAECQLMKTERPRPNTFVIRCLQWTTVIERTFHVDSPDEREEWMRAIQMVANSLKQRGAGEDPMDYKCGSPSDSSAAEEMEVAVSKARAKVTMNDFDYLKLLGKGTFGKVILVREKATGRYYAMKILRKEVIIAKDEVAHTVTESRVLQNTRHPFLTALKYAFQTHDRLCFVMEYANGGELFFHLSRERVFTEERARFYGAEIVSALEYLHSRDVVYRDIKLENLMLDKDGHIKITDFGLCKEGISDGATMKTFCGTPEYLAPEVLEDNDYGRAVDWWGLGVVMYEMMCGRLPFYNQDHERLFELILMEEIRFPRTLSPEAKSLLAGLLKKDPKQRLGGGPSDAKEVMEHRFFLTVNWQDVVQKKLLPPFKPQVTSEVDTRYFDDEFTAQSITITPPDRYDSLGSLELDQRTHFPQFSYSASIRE
UniProt F1RNW6: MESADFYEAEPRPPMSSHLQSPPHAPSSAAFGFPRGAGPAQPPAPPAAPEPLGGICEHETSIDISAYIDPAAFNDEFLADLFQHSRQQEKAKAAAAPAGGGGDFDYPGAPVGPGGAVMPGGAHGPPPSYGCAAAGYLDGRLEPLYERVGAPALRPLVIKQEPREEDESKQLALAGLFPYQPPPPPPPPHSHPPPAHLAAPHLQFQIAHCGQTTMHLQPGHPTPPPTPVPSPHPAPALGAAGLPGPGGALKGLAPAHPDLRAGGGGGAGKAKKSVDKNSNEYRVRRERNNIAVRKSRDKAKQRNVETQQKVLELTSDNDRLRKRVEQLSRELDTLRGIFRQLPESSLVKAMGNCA

Assay [2] deals with T1, Sirt1 (endogenous, porcine adipocytes) (pig (endogenous in porcine adipocytes)) (UniProt A7LKB1).
T1 sequence: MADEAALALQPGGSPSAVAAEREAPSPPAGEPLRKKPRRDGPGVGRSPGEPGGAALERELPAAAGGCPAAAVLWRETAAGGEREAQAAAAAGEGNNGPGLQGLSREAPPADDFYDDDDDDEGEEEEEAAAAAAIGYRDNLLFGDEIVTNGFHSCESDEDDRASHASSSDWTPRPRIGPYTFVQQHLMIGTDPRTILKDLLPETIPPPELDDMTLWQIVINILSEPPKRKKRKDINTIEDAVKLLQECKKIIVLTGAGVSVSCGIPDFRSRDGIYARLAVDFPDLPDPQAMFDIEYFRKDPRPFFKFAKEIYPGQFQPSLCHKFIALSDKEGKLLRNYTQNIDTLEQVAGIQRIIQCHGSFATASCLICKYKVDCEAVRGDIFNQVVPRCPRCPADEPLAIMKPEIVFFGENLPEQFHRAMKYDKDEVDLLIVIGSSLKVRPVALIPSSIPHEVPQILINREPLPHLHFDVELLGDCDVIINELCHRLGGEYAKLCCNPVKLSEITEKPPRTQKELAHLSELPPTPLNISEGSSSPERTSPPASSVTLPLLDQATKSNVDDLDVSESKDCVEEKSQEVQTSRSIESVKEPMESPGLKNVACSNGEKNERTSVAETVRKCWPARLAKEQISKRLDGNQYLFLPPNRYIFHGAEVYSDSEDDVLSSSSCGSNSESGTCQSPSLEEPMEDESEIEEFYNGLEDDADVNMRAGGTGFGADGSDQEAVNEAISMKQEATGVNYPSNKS
The assay is described as above.

Two substances from publication PMC3741135 can be followed below.

These are yes or no findings as the source states them, for the method shown. In cells and extracts the contact can be indirect. A result given as binding can be weak or reduced; the word gives no strength.

With “C/EBPα (endogenous, porcine adipocytes) (from UniProt F1RNW6 1-354)”, in assay [1], the binding result is “binds”. In the case of “Akt2 (endogenous, porcine adipocytes) (from UniProt G9BWQ2)”, in assay [2], the binding entry is “binds”.
